Consider one compound from PMC8347134, “Preparation of Antiproliferative Terpene-Alkaloid Hybrids by Free Radical-Mediated Modification of ent-Kauranic Derivatives” (Molecules, 2021).

SMILES strings stand for the structures.

For orientation: IC50 means the point on the concentration scale where inhibition reaches its midpoint.

The assay relates to hTERT RPE-1. In words: Parallel cytotoxicity assay on non-cancerous retina cells. It is filed as cell-based. The following applies: hTERT-RPE1, 72 h, read-out: IC50 hTERT RPE-1. How it is done:
A parallel cytotoxicity assay was performed on non-cancerous retina cells (hTERT RPE-1) in order to estimate the selectivity of the investigated compounds towards tumor cells. The inhibition of cell proliferation was calculated as IC50 by interpolation based on the semi-log dose response.
All cell lines were cultured as recommended by the suppliers. Culture media were purchased from Gibco Life Technologies, USA, and supplemented with 10% fetal bovine serum (HyClone, GE Healthcare Life Sciences, Logan, UT, USA). […] All stock solutions were prepared in DMSO.
After overnight incubation, cells were treated with the test compounds at seven different concentrations ranging from 100 to 6.4 × 10^−3 µM. […] The plates were incubated at 37 °C and monitored for 72 h in an IncuCyte® device (Essen BioScience Inc., Ann Arbor, MI, USA) for real-time imaging. Images were taken every 3 h, with one field imaged per well under 10× magnification. Cell growth was then quantified based on the percent cellular confluence as analysed by the IncuCyte® image analysis software and used to calculate IC50 values by linear interpolation. All tests have been performed in duplicate and the average values have been calculated.

Turning to `CN[C@@H]1C[C@H]2O[C@@](C)([C@@H]1OC)n1c3ccccc3c3c4c(c5c6ccccc6n2c5c31)C(=O)NC4` [SP, staurosporine, reference compound], the IC50 came out at 1 nM.
